Laboratory results reported in paper PMC2706988.
No constants are given. Whether binding was seen depends on the method and setting. For part of these data: In cells and extracts the contact can be indirect. Some entries that bind do so weakly or less than the wild type.

Protein sequences, listed by entry. Tags and fused reporters are not part of them. Lines headed by an entry give the natural chain unless they say otherwise; changes in a name come on top. Residues count along the entry.
VSV-NRP-ΔN (aa 300–577) (Q96CV9, residues 300-577): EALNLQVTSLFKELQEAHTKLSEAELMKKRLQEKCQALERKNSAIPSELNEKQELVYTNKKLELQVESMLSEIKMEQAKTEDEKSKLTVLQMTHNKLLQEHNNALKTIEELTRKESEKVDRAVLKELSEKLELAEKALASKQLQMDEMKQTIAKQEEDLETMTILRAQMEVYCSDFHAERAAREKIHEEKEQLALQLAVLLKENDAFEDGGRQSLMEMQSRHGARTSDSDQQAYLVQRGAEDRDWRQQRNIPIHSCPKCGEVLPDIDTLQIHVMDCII
UniProt Q86VP1: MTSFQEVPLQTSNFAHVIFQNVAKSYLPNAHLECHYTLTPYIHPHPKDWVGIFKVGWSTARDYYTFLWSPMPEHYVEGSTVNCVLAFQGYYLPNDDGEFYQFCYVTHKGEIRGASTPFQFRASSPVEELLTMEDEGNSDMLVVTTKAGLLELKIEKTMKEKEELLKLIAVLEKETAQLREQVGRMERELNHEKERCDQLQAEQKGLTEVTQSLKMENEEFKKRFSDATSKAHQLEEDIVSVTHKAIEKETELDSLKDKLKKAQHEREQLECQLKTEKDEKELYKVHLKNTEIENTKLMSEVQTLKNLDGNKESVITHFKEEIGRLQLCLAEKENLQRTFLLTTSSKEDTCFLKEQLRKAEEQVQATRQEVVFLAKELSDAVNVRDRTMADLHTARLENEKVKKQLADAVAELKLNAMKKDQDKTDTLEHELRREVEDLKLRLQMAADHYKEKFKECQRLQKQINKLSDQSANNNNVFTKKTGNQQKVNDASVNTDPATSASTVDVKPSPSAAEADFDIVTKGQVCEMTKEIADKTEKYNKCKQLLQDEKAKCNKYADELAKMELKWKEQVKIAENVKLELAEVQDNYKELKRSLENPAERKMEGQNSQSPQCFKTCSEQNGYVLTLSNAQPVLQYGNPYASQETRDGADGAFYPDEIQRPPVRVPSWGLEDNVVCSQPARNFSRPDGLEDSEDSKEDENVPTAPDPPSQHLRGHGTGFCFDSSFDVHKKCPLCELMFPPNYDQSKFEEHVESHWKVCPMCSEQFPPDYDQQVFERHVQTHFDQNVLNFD

Experiments:
HA-tagged NRP (aa 1–577) = HA-tagged NRP (aa 1–577) (UniProt Q96CV9); test: SEC
[1] = target: VSV-tagged NRP (wild type, aa 1–577) (UniProt Q96CV9); test: co-IP
VSV-NRP-ΔN (aa 300–577) = VSV-NRP-ΔN (aa 300–577) (UniProt Q96CV9); test: co-IP
[2] = target: endogenous NRP of C8166 and C91PL cells (human (endogenous in C8166 and C91PL)) (UniProt Q96CV9); test: co-IP
[3] = target: Tax1 (wild-type, pSG5M-Tax1, expressed in 293T cells) (HTLV-1) (UniProt P03409); test: co-IP
Flag-tagged TAX1BP1 = Flag-tagged TAX1BP1 (UniProt Q86VP1); test: co-IP

Substance: Tax1 (expressed in HeLa cells) (from UniProt P03409 1-353)
- binding (HA-tagged NRP (aa 1–577)): binds

Substance: Tax1 (wild-type, pSG5M-Tax1, expressed in 293T cells) (from UniProt P03409 1-353)
- binding [1]: binds
- binding (VSV-NRP-ΔN (aa 300–577)): binds

Substance: Tax1 expressed in HTLV-1-infected cell lines C8166 and C91PL (from UniProt P03409 1-353)
- binding [2]: binds

Substance: VSV-tagged NRP (wild type, aa 1–577) (from UniProt Q96CV9 1-577)
- binding [3]: binds
- binding (Flag-tagged TAX1BP1): binds
